# Reference: the supplement of paper PMC7666118
# By UniProt entry, the sequences of proteins in these tests, tags left out. Where a name states a change or a piece, a line headed by the entry shows the natural chain unless it says otherwise.
# UniProt Q9NPQ8: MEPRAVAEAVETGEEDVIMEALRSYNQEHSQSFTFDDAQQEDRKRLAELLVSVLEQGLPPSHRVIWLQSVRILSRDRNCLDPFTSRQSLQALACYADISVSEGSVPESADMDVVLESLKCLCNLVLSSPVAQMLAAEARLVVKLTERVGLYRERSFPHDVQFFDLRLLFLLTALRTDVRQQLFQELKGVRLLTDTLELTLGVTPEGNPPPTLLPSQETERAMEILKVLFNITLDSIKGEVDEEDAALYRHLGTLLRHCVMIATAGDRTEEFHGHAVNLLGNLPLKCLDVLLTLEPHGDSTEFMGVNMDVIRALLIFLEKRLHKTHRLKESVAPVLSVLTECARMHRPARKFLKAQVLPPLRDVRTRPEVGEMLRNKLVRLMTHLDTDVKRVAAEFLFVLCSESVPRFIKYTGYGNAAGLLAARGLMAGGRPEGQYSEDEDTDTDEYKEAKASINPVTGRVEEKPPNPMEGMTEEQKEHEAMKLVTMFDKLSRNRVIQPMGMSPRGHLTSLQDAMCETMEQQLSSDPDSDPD
# UniProt Q9Y6Y8: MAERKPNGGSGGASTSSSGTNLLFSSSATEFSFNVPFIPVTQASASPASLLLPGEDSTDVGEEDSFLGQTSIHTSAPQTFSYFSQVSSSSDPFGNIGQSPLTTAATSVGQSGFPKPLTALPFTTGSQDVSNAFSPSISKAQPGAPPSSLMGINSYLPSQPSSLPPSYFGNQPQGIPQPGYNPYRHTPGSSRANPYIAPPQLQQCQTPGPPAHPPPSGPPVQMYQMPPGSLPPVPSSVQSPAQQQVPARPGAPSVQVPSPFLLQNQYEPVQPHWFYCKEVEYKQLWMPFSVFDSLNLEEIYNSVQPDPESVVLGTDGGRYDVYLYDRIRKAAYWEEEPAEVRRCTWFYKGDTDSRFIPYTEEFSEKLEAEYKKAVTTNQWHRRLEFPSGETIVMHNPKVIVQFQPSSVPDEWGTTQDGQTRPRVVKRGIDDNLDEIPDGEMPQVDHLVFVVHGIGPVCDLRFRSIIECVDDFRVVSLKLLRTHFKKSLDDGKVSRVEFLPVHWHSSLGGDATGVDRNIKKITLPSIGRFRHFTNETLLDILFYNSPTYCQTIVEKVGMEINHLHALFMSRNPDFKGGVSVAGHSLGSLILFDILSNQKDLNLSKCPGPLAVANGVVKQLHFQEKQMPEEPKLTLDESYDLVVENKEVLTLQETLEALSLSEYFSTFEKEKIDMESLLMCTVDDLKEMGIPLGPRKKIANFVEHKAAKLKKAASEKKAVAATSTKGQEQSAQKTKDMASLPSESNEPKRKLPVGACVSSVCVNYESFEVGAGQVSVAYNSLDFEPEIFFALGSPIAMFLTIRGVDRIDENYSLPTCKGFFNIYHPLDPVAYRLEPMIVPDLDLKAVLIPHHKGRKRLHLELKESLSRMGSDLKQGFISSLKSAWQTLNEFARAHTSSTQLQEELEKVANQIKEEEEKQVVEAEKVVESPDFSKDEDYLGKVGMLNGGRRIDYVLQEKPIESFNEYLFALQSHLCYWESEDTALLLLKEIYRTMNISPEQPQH
# UniProt Q96FV2: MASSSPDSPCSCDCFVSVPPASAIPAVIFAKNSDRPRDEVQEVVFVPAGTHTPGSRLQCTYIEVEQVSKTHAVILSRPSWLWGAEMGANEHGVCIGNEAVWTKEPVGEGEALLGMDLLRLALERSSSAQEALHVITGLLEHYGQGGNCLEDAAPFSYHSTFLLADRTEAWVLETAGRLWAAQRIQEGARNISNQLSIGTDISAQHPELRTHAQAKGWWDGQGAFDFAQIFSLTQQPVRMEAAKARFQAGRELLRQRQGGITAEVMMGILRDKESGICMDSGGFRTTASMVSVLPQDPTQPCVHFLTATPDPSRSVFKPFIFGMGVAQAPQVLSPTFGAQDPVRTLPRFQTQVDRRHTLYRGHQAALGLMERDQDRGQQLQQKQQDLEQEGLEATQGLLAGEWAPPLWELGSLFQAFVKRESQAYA
# UniProt Q8WVM8, whole entry, looked up: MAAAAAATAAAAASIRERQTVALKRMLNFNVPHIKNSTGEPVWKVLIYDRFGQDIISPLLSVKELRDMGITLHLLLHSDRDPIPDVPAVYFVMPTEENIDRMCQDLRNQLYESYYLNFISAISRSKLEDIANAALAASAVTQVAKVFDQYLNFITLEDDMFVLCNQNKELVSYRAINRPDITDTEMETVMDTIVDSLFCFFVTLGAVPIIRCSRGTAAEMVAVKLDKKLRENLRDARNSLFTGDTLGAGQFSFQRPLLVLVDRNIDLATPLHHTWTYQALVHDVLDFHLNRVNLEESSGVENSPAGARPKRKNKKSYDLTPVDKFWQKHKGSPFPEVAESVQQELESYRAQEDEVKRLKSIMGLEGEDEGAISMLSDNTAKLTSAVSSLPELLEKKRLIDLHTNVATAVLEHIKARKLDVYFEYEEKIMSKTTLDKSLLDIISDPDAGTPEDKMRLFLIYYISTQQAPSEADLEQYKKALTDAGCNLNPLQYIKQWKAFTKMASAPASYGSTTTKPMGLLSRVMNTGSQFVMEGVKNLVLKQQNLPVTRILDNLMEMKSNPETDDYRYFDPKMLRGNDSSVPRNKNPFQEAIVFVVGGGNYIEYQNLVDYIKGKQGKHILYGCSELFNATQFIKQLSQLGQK
# UniProt Q92854, whole entry: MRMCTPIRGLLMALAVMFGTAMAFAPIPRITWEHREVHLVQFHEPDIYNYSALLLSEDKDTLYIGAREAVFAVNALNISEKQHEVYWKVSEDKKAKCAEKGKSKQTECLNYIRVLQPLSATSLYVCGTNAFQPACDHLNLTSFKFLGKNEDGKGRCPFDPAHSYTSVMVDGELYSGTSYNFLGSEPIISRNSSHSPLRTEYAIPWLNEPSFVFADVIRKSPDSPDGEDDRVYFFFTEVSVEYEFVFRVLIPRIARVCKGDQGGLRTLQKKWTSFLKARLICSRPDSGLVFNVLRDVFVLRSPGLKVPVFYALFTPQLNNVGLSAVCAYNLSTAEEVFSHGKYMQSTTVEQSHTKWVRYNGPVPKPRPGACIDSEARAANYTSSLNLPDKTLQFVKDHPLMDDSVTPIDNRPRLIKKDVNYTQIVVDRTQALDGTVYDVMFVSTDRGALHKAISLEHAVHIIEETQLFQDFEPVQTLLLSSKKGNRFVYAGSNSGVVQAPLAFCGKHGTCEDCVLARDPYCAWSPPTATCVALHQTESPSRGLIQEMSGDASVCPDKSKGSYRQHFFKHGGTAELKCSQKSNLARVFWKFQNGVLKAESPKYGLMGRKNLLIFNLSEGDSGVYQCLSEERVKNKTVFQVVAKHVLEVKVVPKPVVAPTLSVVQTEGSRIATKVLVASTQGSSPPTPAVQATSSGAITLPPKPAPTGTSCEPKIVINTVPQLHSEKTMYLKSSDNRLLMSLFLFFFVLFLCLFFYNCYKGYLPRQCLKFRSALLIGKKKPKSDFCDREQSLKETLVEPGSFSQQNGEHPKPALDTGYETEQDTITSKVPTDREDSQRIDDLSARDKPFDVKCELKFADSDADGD
# UniProt Q15424: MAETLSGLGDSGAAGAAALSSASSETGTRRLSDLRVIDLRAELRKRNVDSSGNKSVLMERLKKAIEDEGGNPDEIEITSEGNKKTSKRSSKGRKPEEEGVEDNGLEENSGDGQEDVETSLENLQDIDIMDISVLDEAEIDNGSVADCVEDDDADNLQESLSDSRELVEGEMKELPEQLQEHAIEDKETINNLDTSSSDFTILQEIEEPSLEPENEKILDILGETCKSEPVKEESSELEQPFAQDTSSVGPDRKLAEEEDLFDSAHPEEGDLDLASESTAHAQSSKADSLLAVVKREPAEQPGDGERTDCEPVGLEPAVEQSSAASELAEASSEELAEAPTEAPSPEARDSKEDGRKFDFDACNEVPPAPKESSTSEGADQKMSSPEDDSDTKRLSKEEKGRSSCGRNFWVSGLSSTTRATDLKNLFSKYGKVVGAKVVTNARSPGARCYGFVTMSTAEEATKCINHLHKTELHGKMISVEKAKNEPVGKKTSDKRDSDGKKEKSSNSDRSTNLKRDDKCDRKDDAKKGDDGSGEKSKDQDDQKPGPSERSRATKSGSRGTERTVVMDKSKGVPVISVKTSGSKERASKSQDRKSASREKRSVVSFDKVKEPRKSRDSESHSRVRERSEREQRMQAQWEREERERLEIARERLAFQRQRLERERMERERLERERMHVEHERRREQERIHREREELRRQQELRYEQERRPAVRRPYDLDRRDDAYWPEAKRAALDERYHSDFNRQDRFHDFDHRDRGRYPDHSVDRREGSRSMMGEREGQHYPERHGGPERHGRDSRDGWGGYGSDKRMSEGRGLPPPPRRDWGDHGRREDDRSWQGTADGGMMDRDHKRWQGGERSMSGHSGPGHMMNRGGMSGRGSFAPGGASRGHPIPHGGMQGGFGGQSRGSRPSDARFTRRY
# UniProt Q8WYJ6: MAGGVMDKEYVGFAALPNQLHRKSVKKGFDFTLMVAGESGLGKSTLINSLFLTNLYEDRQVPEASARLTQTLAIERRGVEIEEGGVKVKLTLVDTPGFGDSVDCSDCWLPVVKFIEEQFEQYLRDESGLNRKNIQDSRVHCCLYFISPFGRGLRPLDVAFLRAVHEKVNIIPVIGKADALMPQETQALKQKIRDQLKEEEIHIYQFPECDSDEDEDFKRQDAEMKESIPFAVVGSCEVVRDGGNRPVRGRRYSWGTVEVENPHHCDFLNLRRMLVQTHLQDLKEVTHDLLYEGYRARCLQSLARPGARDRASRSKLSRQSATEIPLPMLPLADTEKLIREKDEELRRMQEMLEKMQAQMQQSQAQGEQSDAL
# UniProt Q9NQG5: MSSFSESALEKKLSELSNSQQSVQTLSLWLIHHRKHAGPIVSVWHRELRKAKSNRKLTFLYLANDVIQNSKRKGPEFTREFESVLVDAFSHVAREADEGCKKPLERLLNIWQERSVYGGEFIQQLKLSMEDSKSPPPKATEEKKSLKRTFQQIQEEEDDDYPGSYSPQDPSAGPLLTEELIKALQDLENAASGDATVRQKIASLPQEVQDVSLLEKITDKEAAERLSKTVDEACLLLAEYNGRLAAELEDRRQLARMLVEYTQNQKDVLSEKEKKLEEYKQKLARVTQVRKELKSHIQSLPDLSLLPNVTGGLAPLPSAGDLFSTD
# UniProt Q15459: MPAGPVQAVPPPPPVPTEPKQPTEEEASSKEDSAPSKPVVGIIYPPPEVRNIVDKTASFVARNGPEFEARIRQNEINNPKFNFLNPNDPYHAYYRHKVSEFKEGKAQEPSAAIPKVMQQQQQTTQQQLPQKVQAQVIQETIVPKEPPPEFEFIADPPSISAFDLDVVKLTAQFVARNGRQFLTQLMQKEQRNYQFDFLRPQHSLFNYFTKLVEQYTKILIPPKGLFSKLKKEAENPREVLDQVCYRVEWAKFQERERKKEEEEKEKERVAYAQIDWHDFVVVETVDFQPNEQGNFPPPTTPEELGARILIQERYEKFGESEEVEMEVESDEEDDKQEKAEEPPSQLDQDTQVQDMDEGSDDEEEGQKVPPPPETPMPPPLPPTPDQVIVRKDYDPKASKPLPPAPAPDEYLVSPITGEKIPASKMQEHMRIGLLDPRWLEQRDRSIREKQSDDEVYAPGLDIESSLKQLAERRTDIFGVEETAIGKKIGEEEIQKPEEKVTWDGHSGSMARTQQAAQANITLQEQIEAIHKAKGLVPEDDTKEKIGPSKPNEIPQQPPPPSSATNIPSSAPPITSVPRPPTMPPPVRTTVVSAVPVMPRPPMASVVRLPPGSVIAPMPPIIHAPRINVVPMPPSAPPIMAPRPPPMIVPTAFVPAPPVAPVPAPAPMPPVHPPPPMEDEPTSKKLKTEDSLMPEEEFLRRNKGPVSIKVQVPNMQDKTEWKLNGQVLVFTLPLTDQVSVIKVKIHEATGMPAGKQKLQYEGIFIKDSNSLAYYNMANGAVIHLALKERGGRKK
# UniProt Q8N488: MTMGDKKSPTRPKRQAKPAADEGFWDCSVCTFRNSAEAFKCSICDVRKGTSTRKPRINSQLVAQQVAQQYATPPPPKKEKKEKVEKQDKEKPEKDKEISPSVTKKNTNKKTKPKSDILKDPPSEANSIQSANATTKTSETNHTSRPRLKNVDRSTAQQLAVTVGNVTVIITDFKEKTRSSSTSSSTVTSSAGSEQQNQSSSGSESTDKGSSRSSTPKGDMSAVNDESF
# UniProt P13489: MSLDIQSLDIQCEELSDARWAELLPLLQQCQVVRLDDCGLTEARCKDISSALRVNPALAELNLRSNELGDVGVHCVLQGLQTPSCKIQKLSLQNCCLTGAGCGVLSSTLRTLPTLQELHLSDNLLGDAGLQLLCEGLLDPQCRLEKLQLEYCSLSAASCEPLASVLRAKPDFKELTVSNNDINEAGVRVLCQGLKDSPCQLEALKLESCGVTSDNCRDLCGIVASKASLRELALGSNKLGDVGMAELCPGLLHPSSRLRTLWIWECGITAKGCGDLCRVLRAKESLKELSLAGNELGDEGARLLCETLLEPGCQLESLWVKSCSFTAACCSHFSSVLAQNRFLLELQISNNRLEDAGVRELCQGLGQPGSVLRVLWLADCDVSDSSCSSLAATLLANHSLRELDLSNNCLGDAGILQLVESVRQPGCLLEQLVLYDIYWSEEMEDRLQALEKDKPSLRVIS
# This is one part of the list.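 Rule for the calls: active = dose-dependent thermal stabilisation significant by F-test of dose-response against flat model at 10% FDR; inactive = not significant.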
# Compound: Nc1nc2c(ncn2[C@@H]2O[C@H](COP(=O)(O)OP(=O)(O)OP(=O)(O)O)[C@@H](O)[C@H]2O)c(=O)[nH]1
# Assay: dose-dependent thermal stabilisation call (2D-TPP, DLPTP, 10% FDR) (binary (1 = stabilised)); higher = stabilised by the compound
# Conditions: system: Jurkat gel-filtered lysate; concentration range 1-500 µM
# Protocol: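 2D thermal proteome profiling in gel-filtered Jurkat E6.1 lysate (2 mg/ml) treated with NaGTP (0, 1, 10, 100, 500 uM) for 10 min at room temperature, then heated 3 min at one of 12 temperatures (42-63.9 C). Soluble protein was quantified by TMT10 MS. The value is the DLPTP call of the paper: dose-dependent thermal stabilisation over all temperatures at 10% FDR (F-test of a dose-response against a flat model); one experiment, one call per tested protein.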
row,Target,dose-dependent thermal stabilisation call
1,RRP1B (UniProt Q14684),inactive: 0
2,RSF1 (UniProt Q96T23),inactive: 0
3,RRAS (UniProt P10301),active: 1
4,RMDN1 (UniProt Q96DB5),inactive: 0
5,RUVBL1 (UniProt Q9Y265),inactive: 0
6,RIC8A (UniProt Q9NPQ8),active: 1
7,RPL31 (UniProt P62899),inactive: 0
8,ROCK1 (UniProt Q13464),inactive: 0
9,RXRA (UniProt P19793),active: 1
10,RPS7 (UniProt P62081),active: 1
11,SBF1 (UniProt O95248),inactive: 0
12,SEC24D (UniProt O94855),inactive: 0
13,SETD3 (UniProt Q86TU7),active: 1
14,SF3B1 (UniProt O75533),inactive: 0
15,RIPOR2 (UniProt Q9Y4F9),inactive: 0
16,SEC23B (UniProt Q15437),inactive: 0
17,SEC23IP (UniProt Q9Y6Y8),active: 1
18,SCRN2 (UniProt Q96FV2),inactive: 0
19,RIDA (UniProt P52758),inactive: 0
20,SCFD1 (UniProt Q8WVM8),active: 1

# In a second layout: results already given
row | Target | dose-dependent thermal stabilisation call
3 | RRAS (UniProt P10301) | active: 1
12 | SEC24D (UniProt O94855) | inactive: 0

# (cont.)

row,Target,dose-dependent thermal stabilisation call
1,SEMA4D (UniProt Q92854),inactive: 0
2,SCLY (UniProt Q96I15),inactive: 0
3,RPL34 (UniProt P49207),inactive: 0
4,SAFB (UniProt Q15424),inactive: 0
5,RRM2B (UniProt Q7LG56),inactive: 0
6,RRAGC (UniProt Q9HB90),inactive: 0
7,SEPTIN1 (UniProt Q8WYJ6),active: 1
8,RPS6KA3 (UniProt P51812),active: 1
9,SGO2 (UniProt Q562F6),inactive: 0
10,RPRD1B (UniProt Q9NQG5),inactive: 0
11,REL (UniProt Q04864),inactive: 0
12,RPS25 (UniProt P62851),inactive: 0
13,RSL1D1 (UniProt O76021),active: 1
14,SF3A1 (UniProt Q15459),inactive: 0
15,RYBP (UniProt Q8N488),inactive: 0
16,RETN (UniProt Q9HD89),inactive: 0
17,RPS3 (UniProt P23396),inactive: 0
18,SF3B2 (UniProt Q13435),active: 1
19,S100A4 (UniProt P26447),inactive: 0
20,RNH1 (UniProt P13489),inactive: 0
